Measurements reported in PubChem BioAssay AID1159578 (Peter MacCallum Cancer Centre, 2015)
The whole screen tested about 18,000 reagents; shown is an unselected part. Over the whole deposit, about 1,030 (5.7%) are marked active. 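Inactive calls also include pools with fewer than 3300 nuclei, whose migration was not assessed.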 Raw values are not corrected between plates. A number with no mark means an inactive call. Not all columns of the deposit are shown. No sequences are given here.

Test: 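Knock-downs that alter how fast lymphatic endothelial cells migrate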 (primary screen)
Cell system: human lymphatic endothelial cells
Knock-down reagent: siRNA pool against human genes, 40 nM
Duration: 48 h after transfection
Read-out: 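High-content imaging of dye-stained cells in a scratch assay measures filled wound area and nuclei per well; duplicate means given as ratio to mock and robust z-score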
Scale: migration robust z-score: higher = faster migration into the scratch; nuclei per well: higher = more cells in the well
Call rule: 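Migration changed when robust z exceeds 2 or falls below -2 and mean nuclei number is at least 3300; otherwise not called changed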
Calls: active = migration changed; inactive = no migration change, or too few cells

ZNF264: migration robust z-score = -0.22; migration class with cell-count check = migration z between -2 and 2; enough cells; nuclei per well, duplicate mean = 6674
C7orf25: migration robust z-score = -0.65; migration class with cell-count check = migration z between -2 and 2; enough cells; nuclei per well, duplicate mean = 5794
DDX53: migration robust z-score = 0.04; migration class with cell-count check = migration z between -2 and 2; enough cells; nuclei per well, duplicate mean = 5652
XKRY: migration robust z-score = 0.25; migration class with cell-count check = migration z between -2 and 2; enough cells; nuclei per well, duplicate mean = 4744
MTMR12: migration robust z-score = -0.1; migration class with cell-count check = migration z between -2 and 2; enough cells; nuclei per well, duplicate mean = 4264
SMUG1: migration robust z-score = -0.7; migration class with cell-count check = migration z between -2 and 2; enough cells; nuclei per well, duplicate mean = 5736
SUCNR1: migration robust z-score = -0.78; migration class with cell-count check = migration z between -2 and 2; enough cells; nuclei per well, duplicate mean = 6701
P2RX5: migration robust z-score = -0.98; migration class with cell-count check = migration z between -2 and 2; enough cells; nuclei per well, duplicate mean = 3880

Look-ups from the entries so far.
For “migration class with cell-count check”, ZNF264 shows migration z between -2 and 2; enough cells
DDX53, migration robust z-score = 0.04

Next records:
IL17F: migration robust z-score = -0.24; migration class with cell-count check = migration z between -2 and 2; enough cells; nuclei per well, duplicate mean = 5323
PAGE2: migration robust z-score = -0.9; migration class with cell-count check = migration z between -2 and 2; enough cells; nuclei per well, duplicate mean = 4228
TTYH3: migration robust z-score = -0.83; migration class with cell-count check = migration z between -2 and 2; enough cells; nuclei per well, duplicate mean = 4676
CALR3: migration robust z-score = 0.64; migration class with cell-count check = migration z between -2 and 2; enough cells; nuclei per well, duplicate mean = 5788
MKRN2: migration robust z-score = 0.39; migration class with cell-count check = migration z between -2 and 2; enough cells; nuclei per well, duplicate mean = 5090
SPZ1: migration robust z-score = 1.01; migration class with cell-count check = migration z between -2 and 2; enough cells; nuclei per well, duplicate mean = 6362
